# PubChem BioAssay AID504764 | Drosophila RNAi Screening Center | 2011
# Test: 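Genes whose knock-down alters Notch-dependent transcription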 (primary screen)
# System: Drosophila Kc167 cells
# Reagent: long dsRNA against Drosophila genes
# Time to read-out: about 5 days (4 days dsRNA, then 24 h after transfection)
# Treatment: transfection of constitutively active membrane-tethered Notch lacking the extracellular domain, read 24 h later
# Measured: 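Firefly luciferase from an E(spl)m3 reporter with active Notch, plus control-promoter and uninduced reporter wells for normalisation; unnormalised counts, duplicate wells a and b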
# Scale: induced reporter light, run 1, well a and induced reporter light, run 1, well b: higher = more light from the Notch target reporter with active Notch; control promoter light, run 1, well a and control promoter light, run 1, well b: higher = more light from the viral control promoter (cell number, transfection, viability); uninduced reporter light, run 1, well a: higher = more light from the Notch target reporter without active Notch
# Active means: 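Hit if the duplicate-averaged log2 ratio of induced to control-promoter light gives a plate-wise z beyond ±2, or induced to uninduced beyond ±1.8; weak-control or discordant-duplicate wells dropped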
# Calls: active = modifier hit (raised or lowered Notch signal); inactive = not a hit
# In all, the deposit lists about 22,000 reagents; shown is a random part of those with a known target gene and a result. Over the whole deposit, 403 (1.9%) got an active call. 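Unnormalised raw counts per well; ratio z-scores behind the hit calls and whether each hit raises or lowers signal are not deposited.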 A plus sign joins genes that one reagent is predicted to hit. The record does not give: the amount of reagent.
predicted target,amplicon,"induced reporter light, run 1, well a","induced reporter light, run 1, well b","control promoter light, run 1, well a","control promoter light, run 1, well b","uninduced reporter light, run 1, well a",Outcome
ss (spineless),DRSC17069,1.67e5,1.85e5,1.19e5,1.37e5,13090,inactive
CG14840,DRSC14964,3.28e5,4.01e5,3.20e5,3.72e5,29570,inactive
SMC2 (Structural maintenance of chromosomes 2),DRSC07544,1.17e5,90590,81850,63290,8765,inactive
CG14450,DRSC11707,72555,80180,82490,75930,2310,inactive
CG17207,DRSC15198,3715,5415,9615,5700,442,inactive
CG4477,DRSC10425,3.23e5,2.82e5,4.43e5,3.34e5,14030,inactive
Idgf4 (Imaginal disc growth factor 4),DRSC18675,1.11e5,1.15e5,2.78e5,2.14e5,8530,inactive
Eaf (ELL-associated factor),DRSC05050,19205,19195,18090,22725,3045,inactive
Eaf (ELL-associated factor),DRSC06052,2.55e5,2.24e5,1.78e5,2.25e5,16510,inactive
CG9215,DRSC20171,58560,49095,68610,64870,7820,inactive
CtsL2 (Cathepsin L2),DRSC06978,1.20e5,1.38e5,1.16e5,1.02e5,8870,inactive
"SdhC (Succinate dehydrogenase, subunit C)",DRSC16088,78765,1.14e5,96615,1.02e5,6390,inactive
CG34248,DRSC09426,1.89e5,1.69e5,2.63e5,3.04e5,20395,inactive
CG14877,DRSC15001,1.62e5,1.82e5,1.60e5,1.42e5,12630,inactive
ninaC (neither inactivation nor afterpotential C),DRSC03579,1.80e5,1.84e5,2.02e5,1.82e5,13410,inactive
Sec31 (Secretory 31),DRSC07131,1.07e5,92670,65055,65525,6150,inactive
lqfR (liquid facets-Related),DRSC14703,92595,1.02e5,86505,89785,10670,inactive
lqfR (liquid facets-Related),DRSC14704,1.61e5,1.28e5,1.59e5,1.76e5,11110,inactive
eff (effete),DRSC16940,1.96e5,2.14e5,2.43e5,2.24e5,18065,inactive
CG10663,DRSC09770,2.14e5,1.55e5,1.88e5,91840,8525,active
CG13739,DRSC06410,17635,15450,12460,11600,3920,inactive
CG15127,DRSC05802,96085,1.03e5,1.50e5,1.24e5,9455,inactive
CG15127,DRSC06549,60685,50515,36310,38880,5070,inactive
LBR (Lamin B receptor),DRSC04298,2.56e5,2.92e5,2.37e5,2.06e5,17500,inactive
Obp99a (Odorant-binding protein 99a),DRSC15303,1.06e5,1.03e5,1.34e5,1.37e5,7920,inactive
CG15864,DRSC15122,62830,69390,47640,57130,3815,inactive
EMC8-9 (ER membrane protein complex subunit 8/9),DRSC04380,2.19e5,1.91e5,1.30e5,1.78e5,15085,inactive
pit (pitchoune),DRSC17025,1.77e5,2.07e5,2.06e5,1.99e5,10915,inactive
Cpr76Bd (Cuticular protein 76Bd),DRSC11063,1.37e5,1.19e5,1.39e5,1.76e5,9305,inactive
Cand1 (Cullin-associated and neddylation-dissociated 1),DRSC01992,1.41e5,1.52e5,1.28e5,1.43e5,13978,inactive
CG12301,DRSC09875,93995,90975,58020,73185,7320,inactive

Reprinted from above, 7 entries:
predicted target,amplicon,"induced reporter light, run 1, well a","induced reporter light, run 1, well b","control promoter light, run 1, well a","control promoter light, run 1, well b","uninduced reporter light, run 1, well a",Outcome
eff (effete),DRSC16940,1.96e5,2.14e5,2.43e5,2.24e5,18065,inactive
CG10663,DRSC09770,2.14e5,1.55e5,1.88e5,91840,8525,active
CG13739,DRSC06410,17635,15450,12460,11600,3920,inactive
CG15127,DRSC05802,96085,1.03e5,1.50e5,1.24e5,9455,inactive
CG15127,DRSC06549,60685,50515,36310,38880,5070,inactive
LBR (Lamin B receptor),DRSC04298,2.56e5,2.92e5,2.37e5,2.06e5,17500,inactive
Obp99a (Odorant-binding protein 99a),DRSC15303,1.06e5,1.03e5,1.34e5,1.37e5,7920,inactive

Continued:
predicted target,amplicon,"induced reporter light, run 1, well a","induced reporter light, run 1, well b","control promoter light, run 1, well a","control promoter light, run 1, well b","uninduced reporter light, run 1, well a",Outcome
Uxt (Uxt prefoldin-like subunit),DRSC01962,1.26e5,1.16e5,1.29e5,1.58e5,9850,inactive
Lam (Lamin),DRSC03359,73965,75295,73095,74870,4080,inactive
Dip-C (Dipeptidase C),DRSC15855,1.30e5,1.22e5,81450,89740,8570,inactive
cup,DRSC03516,2.92e5,2.43e5,2.36e5,2.95e5,21560,inactive
CG15638,DRSC01875,1.45e5,1.47e5,1.55e5,1.73e5,11742,inactive
CG4438,DRSC02746,1.02e5,1.31e5,61745,82740,17200,inactive
Btnd (Biotinidase),DRSC18316,1.31e5,1.33e5,2.27e5,2.18e5,9942,inactive
Tsp42En (Tetraspanin 42En),DRSC06185,2.03e5,2.01e5,2.00e5,2.28e5,16095,inactive
CG10638,DRSC09762,2.34e5,1.91e5,2.67e5,2.94e5,13135,inactive
CG13711,DRSC08320,1.74e5,1.37e5,1.24e5,1.61e5,7785,inactive
FMRFa (FMRFamide),DRSC07428,1.75e5,1.75e5,2.50e5,2.58e5,17175,inactive
CG31525,DRSC12004,2.41e5,2.70e5,3.31e5,2.78e5,21350,inactive
eIF3m (eukaryotic translation initiation factor 3 subunit m),DRSC07142,32505,27835,29560,32005,2530,inactive
"beta-PheRS (Phenylalanyl-tRNA synthetase, beta-subunit)",DRSC15859,47505,52895,83470,79175,6680,active
"AlaRS-m (Alanyl-tRNA synthetase, mitochondrial)",DRSC09660,1.20e5,1.09e5,87970,38365,9960,inactive
CG12069,DRSC14470,1.42e5,1.42e5,1.68e5,1.78e5,11850,inactive
CG8939,DRSC20127,1.02e5,80340,1.29e5,1.00e5,6905,inactive
Ddrgk1 (DDRGK domain containing 1),DRSC15897,1.63e5,1.77e5,2.32e5,2.68e5,16005,inactive
CG8777,DRSC07263,1.51e5,1.16e5,1.42e5,1.41e5,13245,inactive
CG15283,DRSC01980,1.49e5,1.63e5,1.42e5,1.27e5,13060,inactive
vig (vasa intronic gene),DRSC03630,1.54e5,1.68e5,1.53e5,1.78e5,14965,inactive
vig (vasa intronic gene),DRSC03631,1.93e5,2.15e5,1.73e5,1.87e5,19320,inactive
RpL7-like + CG34164,DRSC02836,1.21e5,1.24e5,1.08e5,1.13e5,11105,inactive
RpL7-like + CG34164,DRSC02837,1.44e5,1.50e5,1.63e5,1.82e5,11985,inactive
CG16826,DRSC02527,1.54e5,1.55e5,1.96e5,2.18e5,17245,inactive
EndoA (Endophilin A),DRSC14775,2.80e5,2.72e5,3.16e5,3.70e5,16030,inactive
peb (pebbled),DRSC18817,63300,53175,82455,98555,8520,inactive
fliI (flightless I),DRSC20578,1.74e5,1.72e5,3.25e5,2.87e5,15125,inactive
Ppcs (Phosphopantothenoylcysteine synthetase),DRSC14127,1.57e5,1.71e5,2.48e5,2.37e5,15840,inactive
C3G (C3G guanyl-nucleotide exchange factor),DRSC17745,1.31e5,1.37e5,2.16e5,3.02e5,11545,inactive
C3G (C3G guanyl-nucleotide exchange factor),DRSC17929,1.62e5,1.82e5,3.19e5,3.44e5,12220,inactive
C3G (C3G guanyl-nucleotide exchange factor),DRSC22329,,,,,,inactive
sha (shavenoid),DRSC06331,96465,97770,1.38e5,1.45e5,10710,inactive
